Experimental data reported in PubChem BioAssay AID540276 (National Center for Advancing Translational Sciences (NCATS), 2011).
In all, about 300,000 compounds went through this assay and about 5,400 (1.8%) were called active. The shares of active, inactive and inconclusive entries below differ from those in the screen. Calls come from the whole dose curve; tested in HEK293 cells. Where the call is inconclusive, the potency comes from a doubtful curve fit.

Assay: qHTS for inhibitors of binding or entry into cells for Marburg Virus
Conditions: Marburg virus pseudotyped entry inhibition, cell reporter; activity change, negative = inhibition: at 37.8 µM (top of the series) unless noted
% is set by controls: 0 for no effect and ±100 for the full control effect; potency is the fitted concentration of half-maximal effect.

SMILES	activity change, negative = inhibition	Potency
CC1=C(C(=O)OCC2CCCCC2)C(c2cccc(O)c2)NC(=O)N1 (stereo unspecified)	inactive: -2.94%	–
Clc1ccccc1N/N=C/c1ccc2c(c1)OCO2	–	inconclusive: 0.794 µM [activator, partial curve, poor fit]
Cn1nccc1C(=O)N1CCN(c2ncccn2)CC1	–	inconclusive: 5.62 µM [activator, single point]
COc1cccc(-n2c(/C=C/c3ccc(O)c(O)c3)nc3ccccc3c2=O)c1	–	inconclusive: 1 µM [inhibitor, partial curve, poor fit]
CC1CCN(C(=O)COC(=O)Cc2ccc(Br)cc2)CC1	inactive: 5.73%	–
Cc1ccccc1OCC(=O)OCC(=O)NCC1CCCO1 (stereo unspecified)	inactive: 16.8% [at 46.1 µM]	–
O=C(c1ccc(O)c(Br)c1)c1cc(Br)ccc1O	–	inconclusive: 10 µM [inhibitor, partial curve, poor fit]
CCOc1ccc(C2C(C(=O)c3ccco3)=C(O)C(=O)N2CCCn2ccnc2)cc1 (stereo unspecified)	–	inactive
CC(C)OC(=O)/C(=C/c1ccc(Br)cc1)NC(=O)c1ccco1	inactive: 17.9%	–
Cc1ccc(C)c(S(=O)(=O)c2nnn3c2nc(Nc2ccc(C)c(C)c2)c2ccccc23)c1	inactive: 17.4% [at 46.1 µM]	–
CCOc1ncccc1C(=O)OCC(=O)c1cc(C)n(Cc2ccco2)c1C	–	inconclusive: 16.4 µM [inhibitor, single point]
COc1cccc(NC(=O)CN(C)CC(=O)Nc2ccccc2-c2ccccc2)c1	–	inconclusive: 3.16 µM [inhibitor, partial curve, poor fit]
COc1ccc(CCNC(=O)C2CC(O)CN2S(=O)(=O)c2ccc(Cl)cc2)cc1OC (stereo unspecified)	–	inconclusive: 0.251 µM [inhibitor, full curve, poor fit]
CN(C)C(=O)C1CCC(=O)N1Cc1cccs1 (stereo unspecified)	inactive: -6.84%	–
Cc1ccc2nc(-c3ccccc3)cc(C(=O)N3CCN(S(=O)(=O)c4c(C)noc4C)CC3)c2c1	–	inconclusive: 5.01 µM [inhibitor, full curve, poor fit]
Cc1cc(NCCOCCO)n2ncc(-c3ccc(Cl)cc3)c2n1	–	inconclusive: 0.73 µM [activator, partial curve]
CCOC(=O)c1ccc(Nc2ccc(-c3ccc(OC)c(OC)c3)nn2)cc1	–	inconclusive: 29.1 µM [inhibitor, single point]
CC(C)(C)c1nc(NCC2CCCO2)c2nnn(Cc3ccccc3)c2n1 (stereo unspecified)	–	inconclusive: 7.3 µM [inhibitor, partial curve, poor fit]
COc1ccc(N(C)C(=O)Cn2c(=O)oc3ccccc32)c(OC)c1	–	inconclusive: 6.31 µM [inhibitor, partial curve, poor fit]
CC(C)CCNC(=O)CCS(=O)(=O)c1cccc2nonc12	inactive: 4.83%	–
OCCNCc1cc(Br)ccc1OCc1ccc(F)cc1	–	inconclusive: 8.91 µM [inhibitor, partial curve, poor fit]
COc1cc(C=C2C(=O)OC(c3ccccc3)OC2=O)cc(Br)c1O (stereo unspecified)	inactive: 12.1% [at 46.1 µM]	–
CNC(=O)COC(=O)c1ccccc1Nc1ccccc1	–	inconclusive: 1.26 µM [inhibitor, partial curve, poor fit]
CC1(C)CC2CC(C)(CN2C(=O)COC(=O)c2cccc([N+](=O)[O-])c2)C1 (stereo unspecified)	inactive: 3.53%	–

SMILES	activity change, negative = inhibition	Potency
CCCc1cc(=O)[nH]c(SCC(=O)N2CCN(c3ccccc3OC)CC2)n1	inactive: 12.9% [at 46.1 µM]	–
COc1cc(NC(=O)c2cc3c(s2)-c2ccccc2OC3)cc(OC)c1OC	inactive: -28.9% [at 46.1 µM]	–
Cc1ccc(-c2nn(-c3ccc(F)cc3)c3c2cnc2cc(F)c(F)cc23)cc1	inactive: 4.16% [at 46.1 µM]	–
Cc1ccc2nc(-c3ccc(O)cc3)c(Nc3ccc(Cl)cc3)n2c1	–	inconclusive: 35.5 µM [inhibitor, single point]
CCC(=O)N1CCc2cc(S(=O)(=O)NCCC(=O)Nc3cc(C)ccc3OC)ccc21	inactive: 4.08% [at 46.1 µM]	–
COc1ccc(C(=O)/C=C/Nc2cccc(C)n2)cc1OC	–	inconclusive: 12.6 µM [inhibitor, partial curve, poor fit]
Cc1ccccc1OCC(=O)NNC(=O)c1ccc2c(=O)n3c(nc2c1)CCC3	inactive: 10.5%	–
COc1ccccc1-c1cc2nc(C)c(CCC(=O)O)c(C)n2n1	–	inconclusive: 1.12 µM [inhibitor, full curve, poor fit]
Clc1ccc(-c2csc3ncnc(N4CCc5ccccc5C4)c23)cc1	inactive: 9.86%	–
Cc1ccc(C(C)(C)NC(=O)C2CCC(=O)N(Cc3ccccc3F)C2)cc1 (stereo unspecified)	inactive: 19.7%	–
O=C1CCCN1c1ccc(S(=O)(=O)Oc2ccc(Cl)cc2)cc1[N+](=O)[O-]	–	inconclusive: 2.82 µM [inhibitor, single point]
Cc1ccccc1N1CCN(Cc2c[nH]c3ccccc23)CC1	–	inconclusive: 20.6 µM [inhibitor, single point]
S=C(Nc1ccc(Cl)c(Cl)c1)NC1CCN(Cc2ccccc2)CC1	–	inconclusive: 17.8 µM [inhibitor, single point]
CCOc1ccc(NC(=O)N[C@@H](Cc2ccccc2)C(=O)O)cc1	inactive: 1.01% [at 46.1 µM]	–
OC(CNC1CCCC1)COCCOc1ccc(Br)cc1 (stereo unspecified)	–	inconclusive: 14.1 µM [inhibitor, single point]
CCN1CCN(c2ccc(NC(=O)c3ccc4c(c3)[nH]c(=O)n4Cc3ccc(OC)cc3)cc2)CC1	–	active: 7.94 µM
CC(=O)OCC1OC(n2c(S)c(C#N)c(-c3ccccc3)c(C#N)c2=O)C(OC(C)=O)C(OC(C)=O)C1OC(C)=O (stereo unspecified)	inactive: 1.58%	–
O=C(Nc1cccc(F)c1)Nc1ccccn1	–	inconclusive: 1.16 µM [activator, partial curve, poor fit]
NC(N)=N/N=C/c1ccc(Cl)cc1Cl	–	active: 3.16 µM
CCN(CC)S(=O)(=O)c1ccc(C)c(NC(=O)COc2ccc3c(C)cc(=O)oc3c2)c1	–	inconclusive: 1.12 µM [activator, full curve, poor fit]
COc1cccc(C(=O)N(c2ccc(OC)cc2OC)C2C=CS(=O)(=O)C2)c1 (stereo unspecified)	inactive: 4.15%	–
Cc1[nH]c(=O)c(C#N)cc1-c1ccncc1	–	inconclusive: 35.5 µM [activator, single point]
Cc1oc(-c2cccs2)nc1CN1CCC(c2ccccc2)CC1	–	inconclusive: 1.58 µM [inhibitor, partial curve, poor fit]
O=C(COc1ccc(Cl)cc1Cl)Nc1nnc(C2=COCCO2)o1	–	inconclusive: 0.562 µM [inhibitor, full curve, poor fit]

SMILES	activity change, negative = inhibition	Potency
CCSc1oc(-c2ccco2)nc1S(=O)(=O)c1ccc(Br)cc1	–	inconclusive: 35.5 µM [inhibitor, single point]
CC(=O)c1ccc(Nc2nc3c(S(=O)(=O)c4ccccc4)nnn3c3ccc(Cl)cc23)cc1	–	inconclusive: 2.51 µM [inhibitor, full curve, poor fit]
CCC(C(=O)Nc1ccc(S(=O)(=O)N2CCN(C)CC2)cc1)c1ccccc1 (stereo unspecified)	inactive: 15.5%	–
O=C(CN1CCCC1)Nc1ccc(S(=O)(=O)N2CCCCC2)cc1	–	inconclusive: 7.08 µM [inhibitor, partial curve, poor fit]
C/C(CC(=O)Nc1cc(C)ccn1)=N\NC(=O)c1cccc(C)c1O	–	inconclusive: 35.5 µM [inhibitor, single point]
O=C(CCNC(=O)c1ccc(Br)cc1)NCC1COc2ccccc2O1 (stereo unspecified)	inactive: 0.0867%	–
O=[N+]([O-])c1ccc(Cc2ccc([N+](=O)[O-])cc2)cc1	–	inconclusive: 6.31 µM [inhibitor, single point]
Cc1ccccc1NC(=S)NC(NC(=O)c1ccco1)C(Cl)(Cl)Cl (stereo unspecified)	inactive: -10.7%	–
CCCNC(=O)c1cn(CC)c2cc(N3CCN(C)CC3)c(F)cc2c1=O	–	inconclusive: 10 µM [inhibitor, partial curve, poor fit]
COc1ccc(-c2noc(CCCC(=O)O)n2)cc1	–	inconclusive: 7.3 µM [inhibitor, partial curve, poor fit]
COc1cccc(NC(=O)c2sc3nc(C)c(C(=O)Nc4ccc(Cl)cc4)c(-c4ccc(Br)cc4)c3c2N)c1	–	inconclusive: 3.55 µM [inhibitor, partial curve, poor fit]
Cc1ccc(NS(=O)(=O)c2ccc(-c3ccc(=O)[nH]n3)o2)cc1N(C)C	inactive: 3.9% [at 46.1 µM]	–
O=C(NC(=S)Nc1ccc2c(c1)OCCO2)c1cccc2ccccc12	inactive: -0.479%	–
Cc1ccc(C(=O)N/C(=C\c2ccc(-c3ccccc3[N+](=O)[O-])o2)C(=O)NCCN(C)C)cc1	–	inconclusive: 11.2 µM [inhibitor, partial curve, poor fit]
CC(C)C(=O)Nc1ccc2oc(-c3cc(F)c(F)cc3Cl)nc2c1	–	inconclusive: 9.2 µM [activator, partial curve]
CCOc1ccccc1NC(=O)Cn1c(=O)oc2cc(Cl)ccc21	–	inconclusive: 5.62 µM [activator, single point]
Cn1nc(-c2ccccc2)c(CSc2ccccc2)c1Cl	–	inconclusive: 35.5 µM [inhibitor, partial curve, poor fit]
Cc1ccc(C)c(NC(=O)CSc2sc3c(O)cc(=O)[nH]c3c2C#N)c1	inactive: 0.242% [at 46.1 µM]	–
COc1ccc(CCNC(=O)c2ccc(N(C)S(=O)(=O)c3ccccc3)cc2)cc1	inactive: -17.2% [at 46.1 µM]	–
COCc1cc(=O)n2[nH]c(-c3cccc(Br)c3)cc2n1	inactive: -5.6%	–
Cc1csc(NC(=O)CSc2nc(C(C)C)nc3ccccc23)n1	–	inconclusive: 15.8 µM [inhibitor, single point]
CCC1Oc2ccc(C)cc2N(CC(=O)NCCCN2CCN(Cc3ccccc3)CC2)C1=O (stereo unspecified)	–	inconclusive: 20.6 µM [inhibitor, single point]
CCOCc1c(C(=O)N2CCN(CC(=O)Nc3ccc(F)cc3)CC2)oc2ccccc12	inactive: 6.1%	–

For convenience, part of the list above.
SMILES	activity change, negative = inhibition	Potency
O=C(NC(=S)Nc1ccc2c(c1)OCCO2)c1cccc2ccccc12	inactive: -0.479%	–
Cc1ccc(C(=O)N/C(=C\c2ccc(-c3ccccc3[N+](=O)[O-])o2)C(=O)NCCN(C)C)cc1	–	inconclusive: 11.2 µM [inhibitor, partial curve, poor fit]
CC(C)C(=O)Nc1ccc2oc(-c3cc(F)c(F)cc3Cl)nc2c1	–	inconclusive: 9.2 µM [activator, partial curve]
CCOc1ccccc1NC(=O)Cn1c(=O)oc2cc(Cl)ccc21	–	inconclusive: 5.62 µM [activator, single point]
Cn1nc(-c2ccccc2)c(CSc2ccccc2)c1Cl	–	inconclusive: 35.5 µM [inhibitor, partial curve, poor fit]
Cc1ccc(C)c(NC(=O)CSc2sc3c(O)cc(=O)[nH]c3c2C#N)c1	inactive: 0.242% [at 46.1 µM]	–
